The target of the test is FtsZ-GFP (S. aureus) (UniProt P0A031). As to the kind of experiment: affinity purification with mass spectrometry; FtsZ-GFP captured on anti-GFP M-270 Epoxy Dynabeads from cryogenically lysed S. aureus cells cross-linked with 1% formaldehyde; SDS-PAGE, LC-MS-MS; GFP-only strain SA112 as control.

Amino acid sequences for entries named in this document (tags omitted).
UniProt P0A031: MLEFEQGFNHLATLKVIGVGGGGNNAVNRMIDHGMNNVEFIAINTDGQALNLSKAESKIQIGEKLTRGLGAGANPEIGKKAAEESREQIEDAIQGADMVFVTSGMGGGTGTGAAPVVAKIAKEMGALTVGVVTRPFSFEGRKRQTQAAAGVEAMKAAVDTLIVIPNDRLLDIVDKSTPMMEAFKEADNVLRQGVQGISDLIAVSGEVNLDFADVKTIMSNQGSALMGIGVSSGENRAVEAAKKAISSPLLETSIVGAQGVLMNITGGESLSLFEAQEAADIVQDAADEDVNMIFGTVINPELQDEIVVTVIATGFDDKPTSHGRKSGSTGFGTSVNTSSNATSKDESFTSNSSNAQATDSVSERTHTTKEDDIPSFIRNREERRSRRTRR
UniProt P99110: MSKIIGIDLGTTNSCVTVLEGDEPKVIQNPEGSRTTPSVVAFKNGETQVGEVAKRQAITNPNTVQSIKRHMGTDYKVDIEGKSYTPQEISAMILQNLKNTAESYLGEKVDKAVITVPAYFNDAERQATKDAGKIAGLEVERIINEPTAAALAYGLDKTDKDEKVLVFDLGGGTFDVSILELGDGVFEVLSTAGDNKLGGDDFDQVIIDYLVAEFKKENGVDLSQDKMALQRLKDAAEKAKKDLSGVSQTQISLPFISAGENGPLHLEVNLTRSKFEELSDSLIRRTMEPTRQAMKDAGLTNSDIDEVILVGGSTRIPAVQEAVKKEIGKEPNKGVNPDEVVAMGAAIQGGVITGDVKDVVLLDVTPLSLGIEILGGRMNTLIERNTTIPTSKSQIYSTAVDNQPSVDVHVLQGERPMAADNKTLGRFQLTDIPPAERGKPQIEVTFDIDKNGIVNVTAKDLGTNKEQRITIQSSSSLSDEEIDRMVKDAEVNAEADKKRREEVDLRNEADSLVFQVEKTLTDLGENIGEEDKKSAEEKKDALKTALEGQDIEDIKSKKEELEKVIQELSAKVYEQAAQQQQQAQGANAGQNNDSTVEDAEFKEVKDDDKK

No constants are given. Whether binding was seen depends on the method and setting. In cells and extracts the contact can be indirect. These calls come from enrichment with a bait or labelling near it, and not all partners need be listed.

As for DnaK (from UniProt P99110 1-610), the binding entry is “binds”.

For the origin of these results see article PMC5572376.
